For at least one entry, the source does not settle the construct or the ends of the probe. For part of these data: Weaker means in comparison with the reference protein, sequence or condition of that experiment.
Assays:
[1] = test system: InrS (Synechocystis PCC 6803); test: size exclusion co-migration; conditions: apo, 5 mM EDTA, 2 mM DTT, aerobic, 40 uM protomer binds all of 10 uM DNA (one tetramer per DNA); recombinant protein
[2] = test system: InrS (Synechocystis PCC 6803); test: fluorescence anisotropy (dissociation of pre-formed complex); conditions: ZnSO4 titration, 1 uM InrS protomer, two Zn(II) per tetramer drive InrS from DNA, 10 nM labelled DNA, 10 mM HEPES pH 7.0, 60 mM NaCl, 240 mM KCl, 25 C, anaerobic, 5 mM EDTA for apo or 1.2x (InrS) / 2.2x (ZiaR) metal excess, recombinant protein
[3] = test system: InrS (Synechocystis PCC 6803); test: fluorescence anisotropy (stoichiometry); conditions: apo, 5 mM EDTA, 1 mM DTT, aerobic, 1 uM DNA, inflection at ~4 uM protomer, 10 nM labelled DNA, 10 mM HEPES pH 7.0, 60 mM NaCl, 240 mM KCl, 25 C, anaerobic, 5 mM EDTA for apo or 1.2x (InrS) / 2.2x (ZiaR) metal excess, recombinant protein

Sequence | binding result [1] | binding result [2] | binding result [3]
TCATCAATATCCCCCCTGGGGGCATAGAATAGA (double strand) [nrsDProFA, unlabelled] | binds |  | 
TCATCAATATCCCCCCTGGGGGCATAGAATAGA (double strand) [nrsDProFA (nrsD operator-promoter)] |  | binds more weakly | binds

From paper PMC4235346
